Test results published in paper PMC2364652.
These are yes or no findings as the source states them, for the method shown. For some assays here: Binding seen in cells or lysates may run through a third protein. Some results given as binding are weak or reduced against the parent protein; the word gives no strength.

The chains behind the UniProt entries cited, without tags or fusion partners. Residues count along the entry.
UniProt P07948, residues 63-123: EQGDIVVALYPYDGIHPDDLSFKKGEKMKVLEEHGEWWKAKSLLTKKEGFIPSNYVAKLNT

What was measured:
[1] = target: GST fusion protein of the Lyn SH3 domain (human) (UniProt P07948); assay: pull-down; BEAS-2B lysate in NP-40 lysis buffer incubated with GST fusion protein at 4°C for 2 hours, glutathione-Sepharose 4B beads, immunoblot; only the target purified
[2] = target: SH3 domain of Lyn (spot of the TranSignal SH3 domain array III) (human) (UniProt P07948); assay: peptide or protein array; TranSignal SH3 domain array III (34 human SH3 domains spotted in duplicate); membrane incubated with 30 µg/ml AQP5 WT overnight; detected with HRP-conjugated FLAG antibody; both purified

“full length wild-type AQP5 (aquaporin 5) (from UniProt P55064 1-265)” was tested, and the binding [1] was “binds” and the binding [2] was “binds”.
